# Some of the results follow.
# What was measured:
# Experiment in all cases: glycan array binding signal (z-score within array); higher = stronger binding
# Conditions in all cases: glycan notation: IUPAC condensed, linker removed
# [1] = biological target: Fuc(a1-2)[GalNAc(b1-3)]Gal
# Procedure, shortened: (§1)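 The Consortium for Functional Glycomics database supplied 3228 glycan arrays, of which those lacking an available protein sequence were dropped. The binding signal, a within-array Z-score, was averaged across arrays of the same protein sequence and across linkers. Negative scores can be read as non-binding.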
# Fuc(a1-3)GlcNAc = biological target: Fuc(a1-3)GlcNAc
# Procedure, shortened: as §1
# [2] = biological target: Fuc(a1-3)[Gal(b1-4)]Glc6S
# Procedure, shortened: as §1
# [3] = biological target: Fuc(a1-3)[Gal(b1-4)]GlcNAc
# Procedure, shortened: as §1
# [4] = biological target: Fuc(a1-3)[Gal(b1-4)]GlcNAc(b1-2)Man
# Procedure, shortened: as §1
# [5] = biological target: Fuc(a1-3)[Gal(b1-4)]GlcNAc(b1-2)Man(a1-3)[Fuc(a1-3)[Gal(b1-4)]GlcNAc(b1-2)Man(a1-6)]Man(b1-4)GlcNAc(b1-4)GlcNAc
# Procedure, shortened: as §1
# [6] = biological target: Fuc(a1-3)[Gal(b1-4)]GlcNAc(b1-2)Man(a1-3)[Fuc(a1-3)[Gal(b1-4)]GlcNAc(b1-2)Man(a1-6)]Man(b1-4)GlcNAc(b1-4)[Fuc(a1-6)]GlcNAc
# Procedure, shortened: as §1
# [7] = biological target: Fuc(a1-3)[Gal(b1-4)]GlcNAc(b1-3)Gal(b1-3)[Fuc(a1-4)]GlcNAc
# Procedure, shortened: as §1
# [8] = biological target: Fuc(a1-3)[Gal(b1-4)]GlcNAc(b1-3)Gal(b1-4)[Fuc(a1-3)]GlcNAc
# Procedure, shortened: as §1
# [9] = biological target: Fuc(a1-3)[Gal(b1-4)]GlcNAc(b1-3)Gal(b1-4)[Fuc(a1-3)]GlcNAc(b1-3)Gal(b1-4)[Fuc(a1-3)]GlcNAc
# Procedure, shortened: as §1
# [10] = biological target: Fuc(a1-3)[Gal(b1-4)]GlcNAc(b1-3)GalNAc
# Procedure, shortened: as §1
# [11] = biological target: Fuc(a1-3)[Gal(b1-4)]GlcNAc(b1-6)GalNAc
# Procedure, shortened: as §1
# [12] = biological target: Fuc(a1-3)[Gal(b1-4)]GlcNAc(b1-6)[Gal(b1-3)GlcNAc(b1-3)]Gal(b1-4)Glc
# Procedure, shortened: as §1
# [13] = biological target: Fuc(a1-3)[Gal(b1-4)]GlcNAc6S
# Procedure, shortened: as §1
# [14] = biological target: Fuc(a1-3)[Gal3S(b1-4)]Glc
# Procedure, shortened: as §1
# [15] = biological target: Fuc(a1-3)[Gal3S(b1-4)]GlcNAc
# Procedure, shortened: as §1
# [16] = biological target: Fuc(a1-3)[Gal3S(b1-4)]GlcNAc6S
# Procedure, shortened: as §1
# [17] = biological target: Fuc(a1-3)[GalNAc(b1-4)]GlcNAc
# Procedure, shortened: as §1
# [18] = biological target: Fuc(a1-3)[GalNAc(b1-4)]GlcNAc6S
# Procedure, shortened: as §1
# Fuc(a1-4)GlcNAc = biological target: Fuc(a1-4)GlcNAc
# Procedure, shortened: as §1
# Fuc(b1-3)GlcNAc = biological target: Fuc(b1-3)GlcNAc
# Procedure, shortened: as §1
# Gal(a1-2)Gal = biological target: Gal(a1-2)Gal
# Procedure, shortened: as §1
# Gal(a1-3)Gal = biological target: Gal(a1-3)Gal
# Procedure, shortened: as §1
# Gal(a1-3)Gal(b1-3)GlcNAc = biological target: Gal(a1-3)Gal(b1-3)GlcNAc
# Procedure, shortened: as §1
# [19] = biological target: Gal(a1-3)Gal(b1-3)GlcNAc(b1-2)Man
# Procedure, shortened: as §1
# [20] = biological target: Gal(a1-3)Gal(b1-3)GlcNAc(b1-2)Man(a1-3)[Gal(a1-3)Gal(b1-3)GlcNAc(b1-2)Man(a1-6)]Man(b1-4)GlcNAc(b1-4)GlcNAc
# Procedure, shortened: as §1
# [21] = biological target: Gal(a1-3)Gal(b1-3)GlcNAc(b1-3)GalNAc
# Procedure, shortened: as §1
# [22] = biological target: Gal(a1-3)Gal(b1-3)GlcNAc(b1-6)GalNAc
# Procedure, shortened: as §1
# [23] = biological target: Gal(a1-3)Gal(b1-3)[Fuc(a1-4)]GlcNAc(b1-2)Man(a1-3)[Gal(a1-3)Gal(b1-3)[Fuc(a1-4)]GlcNAc(b1-2)Man(a1-6)]Man(b1-4)GlcNAc(b1-4)GlcNAc
# Procedure, shortened: as §1
# Gal(a1-3)Gal(b1-4)Glc = biological target: Gal(a1-3)Gal(b1-4)Glc
# Procedure, shortened: as §1
# Gal(a1-3)Gal(b1-4)GlcNAc = biological target: Gal(a1-3)Gal(b1-4)GlcNAc
# Procedure, shortened: as §1
# [24] = biological target: Gal(a1-3)Gal(b1-4)GlcNAc(b1-2)Man
# Procedure, shortened: as §1
# [25] = biological target: Gal(a1-3)Gal(b1-4)GlcNAc(b1-2)Man(a1-3)[Gal(a1-3)Gal(b1-4)GlcNAc(b1-2)Man(a1-6)]Man(b1-4)GlcNAc(b1-4)GlcNAc
# Procedure, shortened: as §1
# [26] = biological target: Gal(a1-3)Gal(b1-4)GlcNAc(b1-3)GalNAc
# Procedure, shortened: as §1
# [27] = biological target: Gal(a1-3)Gal(b1-4)GlcNAc(b1-6)GalNAc
# Procedure, shortened: as §1
# [28] = biological target: Gal(a1-3)Gal(b1-4)[Fuc(a1-3)]GlcNAc
# Procedure, shortened: as §1
# [29] = biological target: Gal(a1-3)Gal(b1-4)[Fuc(a1-3)]GlcNAc(b1-2)Man(a1-3)[Gal(a1-3)Gal(b1-4)[Fuc(a1-3)]GlcNAc(b1-2)Man(a1-6)]Man(b1-4)GlcNAc(b1-4)GlcNAc
# Procedure, shortened: as §1
# Gal(a1-3)GalNAc = biological target: Gal(a1-3)GalNAc
# Procedure, shortened: as §1
# [30] = biological target: Gal(a1-3)[Gal(a1-4)]Gal(b1-4)GlcNAc
# Procedure, shortened: as §1
# [31] = biological target: Gal(a1-4)Gal(b1-3)GlcNAc(b1-2)Man(a1-3)[Gal(a1-4)Gal(b1-3)GlcNAc(b1-2)Man(a1-6)]Man(b1-4)GlcNAc(b1-4)GlcNAc
# Procedure, shortened: as §1
# Gal(a1-4)Gal(b1-4)Glc = biological target: Gal(a1-4)Gal(b1-4)Glc
# Procedure, shortened: as §1
# Gal(a1-4)Gal(b1-4)GlcNAc = biological target: Gal(a1-4)Gal(b1-4)GlcNAc
# Procedure, shortened: as §1
# [32] = biological target: Gal(a1-4)Gal(b1-4)GlcNAc(b1-2)Man(a1-3)[Gal(a1-4)Gal(b1-4)GlcNAc(b1-2)Man(a1-6)]Man(b1-4)GlcNAc(b1-4)GlcNAc
# Procedure, shortened: as §1
# [33] = biological target: Gal(a1-4)Gal(b1-4)GlcNAc(b1-3)Gal(b1-4)Glc
# Procedure, shortened: as §1
# Gal(a1-4)GlcNAc = biological target: Gal(a1-4)GlcNAc
# Procedure, shortened: as §1
binder,measurement,setting,value
SP15308B-bot-339-22-339 (Bacteroides ovatus) (protein) NEWEDEQYEQYVSFKAPIASGSDGVTTIYVRYKDNGKVTYQLPIIVSGSTVNSQDRDIHIAVDKDTLKTLNIERFSLYRPELWYTEMEEDKYEFPETVHIPAGSCVELLNIDFNLQDIDMLEKWVLPLTIVDDGSYAYQSHPRKNYAKALLKVVPFNNYSGSYTASSMKVYTYINGKPDTNARTTDKRTGYVVDNNSIFFYAGLINEDMDKDMRKKYKINVHFKEDGTLDMKQDDPSNEMEFELIGTPTYSSTSVMDATRPYLERRYVQIMFEYDFQDFTYGGSGTEVIPIKYRVAGSMTLLRNINTQIPDEDQQIEW,glycan array binding signal (z-score),[1],0.15
same,glycan array binding signal (z-score),Fuc(a1-3)GlcNAc,0.062
same,glycan array binding signal (z-score),[2],-0.36
same,glycan array binding signal (z-score),[3],-0.242
same,glycan array binding signal (z-score),[4],-0.323
same,glycan array binding signal (z-score),[5],0.116
same,glycan array binding signal (z-score),[6],0.884
same,glycan array binding signal (z-score),[7],-0.457
same,glycan array binding signal (z-score),[8],0.466
same,glycan array binding signal (z-score),[9],0.298
same,glycan array binding signal (z-score),[10],0.021
same,glycan array binding signal (z-score),[11],-0.187
same,glycan array binding signal (z-score),[12],-0.092
same,glycan array binding signal (z-score),[13],0.238
same,glycan array binding signal (z-score),[14],0.045
same,glycan array binding signal (z-score),[15],0.466
same,glycan array binding signal (z-score),[16],-0.343
same,glycan array binding signal (z-score),[17],0.003
same,glycan array binding signal (z-score),[18],0.011
same,glycan array binding signal (z-score),Fuc(a1-4)GlcNAc,2.58
same,glycan array binding signal (z-score),Fuc(b1-3)GlcNAc,-0.077
same,glycan array binding signal (z-score),Gal(a1-2)Gal,0.317
same,glycan array binding signal (z-score),Gal(a1-3)Gal,0.449
same,glycan array binding signal (z-score),Gal(a1-3)Gal(b1-3)GlcNAc,-0.64
same,glycan array binding signal (z-score),[19],-0.132
same,glycan array binding signal (z-score),[20],0.713
same,glycan array binding signal (z-score),[21],-0.388
same,glycan array binding signal (z-score),[22],-0.361
same,glycan array binding signal (z-score),[23],0.312
same,glycan array binding signal (z-score),Gal(a1-3)Gal(b1-4)Glc,-0.248
same,glycan array binding signal (z-score),Gal(a1-3)Gal(b1-4)GlcNAc,-0.3
same,glycan array binding signal (z-score),[24],0.053
same,glycan array binding signal (z-score),[25],3.88
same,glycan array binding signal (z-score),[26],-0.537
same,glycan array binding signal (z-score),[27],-0.214
same,glycan array binding signal (z-score),[28],-0.386
same,glycan array binding signal (z-score),[29],0.303
same,glycan array binding signal (z-score),Gal(a1-3)GalNAc,-0.219
same,glycan array binding signal (z-score),[30],-0.022
same,glycan array binding signal (z-score),[31],-0.198
same,glycan array binding signal (z-score),Gal(a1-4)Gal(b1-4)Glc,-0.513
same,glycan array binding signal (z-score),Gal(a1-4)Gal(b1-4)GlcNAc,0.714
same,glycan array binding signal (z-score),[32],0.987
same,glycan array binding signal (z-score),[33],-0.215
same,glycan array binding signal (z-score),Gal(a1-4)GlcNAc,0.038

# Taken from the listing for reference:
binder,measurement,setting,value
SP15308B-bot-339-22-339 (Bacteroides ovatus) (protein) NEWEDEQYEQYVSFKAPIASGSDGVTTIYVRYKDNGKVTYQLPIIVSGSTVNSQDRDIHIAVDKDTLKTLNIERFSLYRPELWYTEMEEDKYEFPETVHIPAGSCVELLNIDFNLQDIDMLEKWVLPLTIVDDGSYAYQSHPRKNYAKALLKVVPFNNYSGSYTASSMKVYTYINGKPDTNARTTDKRTGYVVDNNSIFFYAGLINEDMDKDMRKKYKINVHFKEDGTLDMKQDDPSNEMEFELIGTPTYSSTSVMDATRPYLERRYVQIMFEYDFQDFTYGGSGTEVIPIKYRVAGSMTLLRNINTQIPDEDQQIEW,glycan array binding signal (z-score),Gal(a1-4)Gal(b1-4)GlcNAc,0.714
same,glycan array binding signal (z-score),[32],0.987
same,glycan array binding signal (z-score),[33],-0.215

# From the supplement of paper PMC8728848
